Results on one substance are retold here after publication PMC7253607.

These are yes or no findings as the source states them, for the method shown. Sequences can lack the tags named with a protein.

This test addresses T1, L. monocytogenes SpxA1 fused to the T25 domain (SpxA1-T25) (Listeria monocytogenes) (UniProt Q9RGX0).
T1 sequence: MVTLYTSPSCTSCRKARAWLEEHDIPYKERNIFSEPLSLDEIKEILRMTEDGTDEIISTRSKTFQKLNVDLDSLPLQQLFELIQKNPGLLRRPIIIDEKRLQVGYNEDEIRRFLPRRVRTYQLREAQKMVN
The test can be described thus: two-hybrid; bacterial adenylate cyclase two-hybrid (BACTH) in E. coli BTH101 with one T18 and one T25 plasmid; overnight cultures in LB broth at 37°C; beta-galactosidase (ONPG) read at 28°C, Miller units.

As to “T18 domain of Bordetella pertussis adenylate cyclase alone (domain or fragment)”, the binding result was “no binding”.
